Percent viability data for eleven compounds are collected here from the supplement of paper PMC8256030.

Molecules are shown by their SMILES. Values joined by “and” are separate entries in the source; they are usually repeats but may differ in a detail not shown here. Equal values may be shown once. Where a name gives a salt, the structure may show the parent alone. The list shows a part of the results. Repeats in this data set agree poorly, so a single value says little.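 HEK293T cells were given each compound shortly before transfection with a reporter in which red mCherry is followed by the SARS-CoV-2 frameshift element and then GFP in the −1 frame, so GFP appears only after frameshifting.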

This assay concerns HEK293T. Briefly: percent viability (nuclei count) relative to control; higher = more viable cells. The following applies: 10 µM; 24 h.
Consider `CN1CC(=O)N2[C@H](c3ccc4c(c3)OCO4)c3[nH]c4ccccc4c3C[C@@H]2C1=O`, for which the percent viability is 152%.

For the compound `O=[N+]([O-])c1c(Cl)cccc1-c1c[nH]cc1Cl` [pyrrolnitrin], the percent viability stood at 128%.

In the case of `CCCc1cc(C(N)=S)ccn1` [protionamide], the percent viability is 230% and 187%.

Consider `Clc1ccc2nsnc2c1NC1=NCCN1` [Tizanidine·HCl], for which the percent viability was found to be 351%.

Turning to `O=C(NCC1CCCCN1)c1cc(OCC(F)(F)F)ccc1OCC(F)(F)F` (stereo unspecified) [flecainide], the percent viability turned out to be 226%.

Consider `Nc1c(-c2cccc(C(F)(F)F)c2)nsc1C(=O)O` [amflutizole], for which the percent viability was determined as 250%.

Turning to `C=CCCCCCCCCC(=O)O`, the percent viability came out at 398%.

Regarding `CC[C@H]1OC(=O)[C@H](C)[C@@H](O[C@H]2C[C@@](C)(OC)[C@@H](O)[C@H](C)O2)[C@H](C)[C@@H](O[C@@H]2O[C@H](C)C[C@H](N(C)C)[C@H]2O)[C@](C)(O)C[C@](C)(F)C(=O)[C@H](C)[C@@H](O)[C@]1(C)O` [flurithromycin], the percent viability amounted to 319%.

In the case of `CCCCCNCC(N)=O` [milacemide], the percent viability turned out to be 262%.

Take `CCOC(=O)C1=C[C@]2(CC)CCCN3CCc4c(n1c1ccccc41)[C@@H]32` [vinpocetine]: the percent viability is 84.1%.

With `NCCS(=O)(=O)O` [taurine], the percent viability came to 309%.
